Binding data for 1 substance are collected here from publication PMC6134110.

Amino acid sequences for entries named in this document (tags omitted). Residues count along the entry.
UniProt O00206, residues 24-839: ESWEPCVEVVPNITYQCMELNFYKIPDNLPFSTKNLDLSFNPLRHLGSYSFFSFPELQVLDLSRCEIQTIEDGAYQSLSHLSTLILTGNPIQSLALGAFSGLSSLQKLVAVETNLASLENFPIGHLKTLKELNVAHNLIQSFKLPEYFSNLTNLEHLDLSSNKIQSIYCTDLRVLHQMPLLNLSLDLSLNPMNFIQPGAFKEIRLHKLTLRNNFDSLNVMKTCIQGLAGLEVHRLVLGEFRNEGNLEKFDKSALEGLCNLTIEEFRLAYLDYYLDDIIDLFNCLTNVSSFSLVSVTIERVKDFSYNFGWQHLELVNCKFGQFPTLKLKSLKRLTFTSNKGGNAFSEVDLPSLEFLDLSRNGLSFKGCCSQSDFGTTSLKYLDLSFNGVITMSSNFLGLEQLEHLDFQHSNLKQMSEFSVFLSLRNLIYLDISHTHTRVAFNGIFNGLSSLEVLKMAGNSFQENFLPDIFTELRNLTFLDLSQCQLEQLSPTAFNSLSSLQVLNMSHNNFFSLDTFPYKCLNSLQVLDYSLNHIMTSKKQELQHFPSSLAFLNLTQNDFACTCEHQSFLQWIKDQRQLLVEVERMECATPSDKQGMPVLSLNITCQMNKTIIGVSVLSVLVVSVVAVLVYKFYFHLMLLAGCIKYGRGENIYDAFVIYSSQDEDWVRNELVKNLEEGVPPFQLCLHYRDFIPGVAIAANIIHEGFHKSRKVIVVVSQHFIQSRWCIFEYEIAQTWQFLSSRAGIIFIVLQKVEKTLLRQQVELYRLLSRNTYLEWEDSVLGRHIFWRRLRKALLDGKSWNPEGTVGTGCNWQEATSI
UniProt P58753: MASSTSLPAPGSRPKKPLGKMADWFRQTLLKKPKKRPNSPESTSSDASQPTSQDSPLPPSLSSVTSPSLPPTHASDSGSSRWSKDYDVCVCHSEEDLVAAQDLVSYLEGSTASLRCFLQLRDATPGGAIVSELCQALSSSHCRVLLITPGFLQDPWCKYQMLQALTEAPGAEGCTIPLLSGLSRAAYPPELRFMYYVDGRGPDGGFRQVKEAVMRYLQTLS

Results are given in words; binding and its absence hold for the method and conditions named. In cells and extracts the contact can be indirect. Some results given as binding are weak or reduced against the parent protein; the word gives no strength.

This assay concerns the target Toll-like receptor 4 (TLR4-Flag) (UniProt O00206). Description: co-IP; HEK-Blue cells stably transfected with human CD14 and MD-2, treated with 10 uM D-PDMP or ethanol vehicle, transfected with HA-Mal and TLR4-Flag for 24 h, then 100 ng/ml LPS E. coli O111:B4 for 10 min; lysis in 50 mM Tris-HCl pH 7.5, 150 mM NaCl, 2 mM EDTA, 1% Igepal; IP with anti-Flag (M2), blot with anti-HA and anti-Flag.

“adaptor protein Mal (TIRAP), HA-tagged (from UniProt P58753 1-221)”: the binding entry is on record as “binds”.
